Source: ChEMBL document CHEMBL3988442, “University of Dundee, Small-Polar-MMV Screening Library” (2021).

The chains behind the UniProt entries cited, without tags or fusion partners. Residues count along the entry.
UniProt P9WPC5, whole entry: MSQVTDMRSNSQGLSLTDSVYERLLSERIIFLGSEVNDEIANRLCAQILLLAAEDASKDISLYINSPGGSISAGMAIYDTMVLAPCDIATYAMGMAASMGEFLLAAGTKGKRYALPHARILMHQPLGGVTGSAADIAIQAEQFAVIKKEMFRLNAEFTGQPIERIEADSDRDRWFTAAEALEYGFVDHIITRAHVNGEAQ
UniProt P9WPC3, whole entry partner: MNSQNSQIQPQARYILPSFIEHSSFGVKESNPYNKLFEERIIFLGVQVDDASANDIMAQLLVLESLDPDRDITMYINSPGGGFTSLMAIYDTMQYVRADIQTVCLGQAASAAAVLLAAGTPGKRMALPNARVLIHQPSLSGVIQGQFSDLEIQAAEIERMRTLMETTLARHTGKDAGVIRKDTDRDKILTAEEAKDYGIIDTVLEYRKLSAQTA
UniProt A4I591, 1-473: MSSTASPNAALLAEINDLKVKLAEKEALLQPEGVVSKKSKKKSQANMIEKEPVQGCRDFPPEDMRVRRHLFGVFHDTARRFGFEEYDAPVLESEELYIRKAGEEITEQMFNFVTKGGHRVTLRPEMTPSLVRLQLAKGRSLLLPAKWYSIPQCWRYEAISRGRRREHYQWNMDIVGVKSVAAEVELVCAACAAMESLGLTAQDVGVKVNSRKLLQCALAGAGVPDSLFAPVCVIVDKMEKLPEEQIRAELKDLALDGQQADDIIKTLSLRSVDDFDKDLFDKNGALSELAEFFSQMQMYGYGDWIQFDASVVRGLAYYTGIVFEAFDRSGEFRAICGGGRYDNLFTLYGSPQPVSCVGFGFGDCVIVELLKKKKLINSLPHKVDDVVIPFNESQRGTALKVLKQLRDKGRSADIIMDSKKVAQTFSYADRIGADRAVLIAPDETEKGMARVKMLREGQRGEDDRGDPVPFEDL

The filed quantity is “Percent Effect” (%). How 0% and 100% were set is not recorded. Most values in the screen are low, and negative values occur. This is an unselected part of the compounds tested.

ClpP1P2: 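Protease assay of ClpP1P2, read by the AMC dye that it sets free. Target: ClpP1P2, Mycobacterium tuberculosis (UniProt P9WPC5 and UniProt P9WPC3). Concentration: 50 µM. Higher reads as stronger inhibition, judged from the few compounds that gave an IC50. Most other retested compounds had strongly negative values. About 69,000 compounds were tested under these conditions; 0.015% (about 10) showed 50% or more at least once.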
LiHisRS: 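Enzyme assay of histidyl-tRNA synthetase; the read-out is not stated. Target: Histidine-tRNA ligase, Leishmania infantum (UniProt A4I591). Tested at 30 µM. Direction is inferred from retests: higher values go with stronger inhibition. The assay is labelled LdHisRS but filed under L. infantum. Size under these conditions: about 69,000 compounds, about 410 of them at 50% or above in at least one test.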

| compound | ClpP1P2 | LiHisRS |
|---|---|---|
| `COc1ccc2c(c1)NC(C1CCN(C(=O)C(C)C)CC1)NS2(=O)=O` (stereo not shown) | 9.69 | 11.35 |
| `CN1CCCC2(CCN(C(=O)Cc3cc4c(cc3Cl)OCCO4)C2)C1=O` (stereo not shown) | -6.467 | 1.316 |
| `CSc1ncc(C(=O)N2C[C@@H](NC(C)=O)[C@H](c3ccc(C)cc3)C2)cn1` | 0.722 | 8 |
| `O=C(NCCCN1CCCC1=O)c1nc(-c2ccc3cc[nH]c3c2)no1` | -10.13 | 13.16 |
| `c1ccc(C2CCCN(c3cncc(-n4cccn4)n3)CC2)cc1` (stereo not shown) | -24.17 | 31.25 |
| `CNCCCNC1CCN(c2ccc(-n3ccnc3)cc2)CC1` | 6.711 | 22.95 |
| `CO[C@H]1CN(C(C)C)C[C@@H]1NC(=O)c1cc(-c2ccccc2F)n[nH]1` | 1.714 | 3.226 |
| `Cn1c(C(F)(F)F)nn(CCNC(=O)c2cnc3ccccc3n2)c1=O` | -3.579 | 13.46 |
| `O=C(CN1CCSC2(CCCCC2)C1)NCC(F)(F)F` | -22.9 | 14.4 |
| `COCCN(Cc1ccoc1)S(=O)(=O)c1cccc(C(F)(F)F)c1` | -7.765 | 12.2 |
| `CN(C)C(=O)COCc1cncc2c1CCN(C1CCOCC1)C2` | 0.968 | 13.21 |
| `CCCS(=O)(=O)N1CCCC(CCC(=O)N(C)CCc2ccccn2)C1` (stereo not shown) | -1.198 | -6.195 |
| `O=c1cc(-c2cccnc2)nc(-c2ccc(CN3CC[C@@H](O)C3)cc2)[nH]1` | -3.735 | 4.167 |
| `CNC(=O)[C@@H]1COC[C@H]2CN(C(=O)c3ccc(C)c(C)c3)C[C@H]21` | 9.231 | 10.53 |
| `O=C(c1ccncc1)N1CCCC1c1nc(O)cc(-c2ccccn2)n1` (stereo not shown) | -0.9591 | 12.37 |
| `C=Cc1cccc(CN2CCCn3nc(CNS(C)(=O)=O)cc3C2)c1` | 6.699 | 22.22 |
| `Cc1ccccc1-n1ncc2c(=O)n(CCN3CCCCC3)cnc21` | 5.212 | 12.2 |
| `Cc1cnn(CC2CN(CC(=O)Nc3cccnc3)CCO2)c1` (stereo not shown) | -15.4 | 3.704 |
| `Cc1cnc(CN(Cc2ccccc2)CC2CCOCC2)cn1` | -17.85 | -2.632 |
| `CCCc1c(C(=O)N2CCN(c3cnccn3)CC2)cnn1C` | 10.73 | 11.61 |
| `O=C(CCn1ccc2ccc(Br)cc21)NCc1ccc(C(=O)O)cc1` | -8.717 | 18.42 |
| `CS(=O)(=O)N1CC(=O)N(CCCc2ccccc2)CC(O)C1` (stereo not shown) | 3.305 | 4.124 |
| `CCNC(c1cccnc1)c1cc(C)cc(C)c1` (stereo not shown) | -2.834 | 8.108 |
| `Cc1cc(C2CCCN2C(=O)NCc2cccnc2OC(C)C)on1` (stereo not shown) | 3.145 | 17.74 |
| `CCOc1ccc2nc(CN3CCOC(CN)C3)ccc2c1` (stereo not shown) | -3.497 | 13.43 |
| `CCNC(=O)CCN1CCCC1c1cccc2c1OCCO2` (stereo not shown) | 2.586 | 11.61 |
| `Cc1nn(-c2ccc(C(=O)O)cc2)c2c1C(c1ccsc1)SCC(=O)N2` (stereo not shown) | -19.17 | 20.83 |
| `Cc1c(C(=O)O)cnn1-c1ccc(-c2nc(C3CC3)no2)cn1` | 1.741 | 16.48 |
| `O=C(NCc1cccs1)NCC(O)c1ccoc1` (stereo not shown) | -20.27 | 19.57 |
| `CC(NC(=O)CNCCn1cccn1)c1ccc2c(c1)CCCC2` (stereo not shown) | 1.446 | 30.14 |
| `COc1ccc(Br)c(C(=O)NCC2CCN(C(=O)c3ccoc3)CC2)c1` | -1.74 | 23.08 |
| `COc1ccc(Cn2cc(C(=O)N(C)Cc3ccon3)nn2)cc1` | -7.194 | 18.68 |
| `CC(NC(=O)N1CCN(c2cccs2)CC1)c1ccncc1` (stereo not shown) | 1.539 | 37.93 |
| `CCCSc1ncc(-c2nccn2CCC(N)=O)cn1` | -16.05 | 12.8 |
| `CC(C)N1CC[C@H](c2nc3ccc(C(F)(F)F)cc3[nH]2)C1` | -9.678 | 8.333 |
| `CN(C)c1ncccc1C(=O)N1CCc2c(ncn2C2CC2)C1` | -6.802 | 14.94 |
| `Cc1cnn(CC2CCCN2CC(=O)N(C)Cc2ccsc2)c1` (stereo not shown) | -10.79 | 23.29 |
| `Cc1cc(C(=O)N2CCc3nc(C4CCCCN4)ncc3C2)cs1` (stereo not shown) | -0.08807 | 28.42 |
| `CCS(=O)(=O)c1ccccc1N1CCC(NC(=O)C2CC2)CC1` | -12.19 | 20 |
| `CCOc1ccc(C(=O)CCC(=O)N(C)Cc2cnccn2)cc1C` | -5.37 | 0 |
| `Cc1nc(C2CCCN2C(=O)c2cc3c(s2)CCC3)no1` (stereo not shown) | -10.87 | 7.273 |
| `CCOc1ccc(CCCC(=O)N2CCC(c3nnn[nH]3)CC2)cc1C` | 0.5856 | 17.39 |
| `Cc1cc(C)n(CC2CCCN2C(=O)c2ccc3nncn3c2)n1` (stereo not shown) | -22.22 | 3.448 |
| `Cn1cc(CN2CCCC3(CCN3S(C)(=O)=O)C2)cn1` (stereo not shown) | 3.826 | -4.587 |
| `Cc1nc(N(C)C)ncc1C(=O)NCCc1csc(-c2ccncc2)n1` | 1.91 | 16.53 |
| `Cc1ccc(N2C[C@H]3CCC[C@@H](CN(C)C)[C@H]3C2)nn1` | -0.5074 | 23.08 |
| `O[C@@]1(CNCC2(Cn3cccn3)CC2)CCCN2CCCC[C@@H]21` | -10.2 | 13.92 |
| `Cc1cc(CN2CCN(C(=O)NCc3ccoc3)CC2)no1` | -11.03 | 5.357 |
| `CN1CCC2(COCCN(Cc3cccc(C#N)c3)C2)C1` (stereo not shown) | -6.878 | 7.563 |
| `O=C(NCCCO)c1cc(-c2cc[nH]n2)n2ccccc12` | -317.5 | -12.35 |
| `Cc1ccc(C(=O)Oc2cc(=O)n3cccc(C)c3n2)cc1` | -5.04 | -15.79 |
| `O=C(NCC1(CO)CC1)c1ccccc1Br` | -1.503 | 9.917 |
| `Cc1nnc(CNCC2(O)CCCN(Cc3ccc(F)c(F)c3)C2=O)[nH]1` (stereo not shown) | -17.31 | 20 |
| `COc1ccc(S(=O)(=O)NCC(N)c2ccccc2)c(C)c1` (stereo not shown) | -5.111 | 0 |
| `O=C(NCC1CCOC1)c1csc(Cc2ccccc2)n1` (stereo not shown) | 9.269 | 19.19 |
| `O=C(Nc1ccc2c(c1)OCCO2)c1ccc(=O)[nH]n1` | 19.42 | 8.633 |
| `NC1(C(=O)N2CCC(c3cc(-c4ccccc4Cl)n[nH]3)CC2)CCC1` | 20.1 | 16.39 |
| `CCS(=O)(=O)N1Cc2ncn(CC3CC3)c2C(COCC2CC2)C1` (stereo not shown) | -9.987 | 12.5 |

6 of the entries, repeated:

| compound | ClpP1P2 | LiHisRS |
|---|---|---|
| `CCS(=O)(=O)c1ccccc1N1CCC(NC(=O)C2CC2)CC1` | -12.19 | 20 |
| `CCOc1ccc(C(=O)CCC(=O)N(C)Cc2cnccn2)cc1C` | -5.37 | 0 |
| `COc1ccc2c(c1)NC(C1CCN(C(=O)C(C)C)CC1)NS2(=O)=O` (stereo not shown) | 9.69 | 11.35 |
| `CO[C@H]1CN(C(C)C)C[C@@H]1NC(=O)c1cc(-c2ccccc2F)n[nH]1` | 1.714 | 3.226 |
| `CCNC(=O)CCN1CCCC1c1cccc2c1OCCO2` (stereo not shown) | 2.586 | 11.61 |
| `Cc1c(C(=O)O)cnn1-c1ccc(-c2nc(C3CC3)no2)cn1` | 1.741 | 16.48 |